Measurements reported in PubChem BioAssay AID540256 (National Center for Advancing Translational Sciences (NCATS), 2011).
The campaign covered roughly 300,000 compounds. About 3,700 (1.2%) were called active. The shares of active, inactive and inconclusive entries below differ from those in the screen. The call rests on the fitted dose curve; tested in HEK293 cells. Potencies beside an inconclusive call are fits to weak or partial responses and may not hold up.

Test: qHTS for Inhibitors of binding or entry into cells for Lassa Virus; further: nearly all actives have a fitted effect of over 50% in size
Conditions: Lassa virus pseudotype entry inhibition, cell reporter; series mostly up to 37.9 µM
Potency means the concentration at half of the fitted maximal effect.

Compound	Potency
COc1ccc(OC)c(NC(=O)CSC2=Nc3ccccc3C3=NC(CCC(=O)NCc4ccccc4)C(=O)N23)c1 (stereo not drawn)	inactive
c1ccc(-n2ncc3c(NCc4ccco4)ncnc32)cc1	inconclusive: 7.08 µM [inhibitor, full curve, poor fit]
CN(C)CCNC(=O)c1ccc(Cn2c(SCc3ccc(F)cc3)nc3cccnc32)cc1	inconclusive: 12.6 µM [activator, partial curve]
COc1cc(CNc2ccc3[nH]c(=O)[nH]c3c2)cc(Cl)c1OCC(=O)NC(C)(C)C	inconclusive: 22.4 µM [inhibitor, single point]
Oc1ccc(/C=N/NC(=S)NC2CC3CCC2C3)cc1 (stereo not drawn)	active: 11.2 µM
O=C(C[C@H]1C(=O)N(Cc2cccnc2)C[C@@H]1Cc1ccccc1)Nc1ccccc1	inconclusive: 11.2 µM [inhibitor, single point]
O=C(CSCc1ccc(Cl)cc1)Nc1ccc2c(c1)OCO2	inactive
Cc1ccc2nc(NC(=O)COC(=O)CSc3nc(C)cc(C)n3)sc2c1	inconclusive: 11.6 µM [activator, partial curve]
O=C(C1CCN(Cc2ccc(F)cc2)CC1)N1CCN(C/C=C/c2ccccc2)CC1	inconclusive: 11.2 µM [inhibitor, partial curve, poor fit]
COc1ccc(OC)c(Cc2nnc(CCC(=O)N3CCCCCC3)o2)c1	inactive
CCCCN1C(=O)C(=O)N(CC(=O)N2N=C3/C(=C/c4ccco4)CCCC3C2c2ccco2)C1=O (stereo not drawn)	inactive
O=C(N/N=C/c1cccc(Br)c1)c1ccc(N2CCCC2=O)cc1	inconclusive: 8.91 µM [inhibitor, partial curve, poor fit]
CCC(C(=O)NCc1ccco1)N(C(=O)CNS(=O)(=O)c1ccccc1)c1ccc(OC)cc1 (stereo not drawn)	inactive
Cc1oc(-c2ccccc2Cl)nc1CSCC(=O)N1CCCC1	active: 0.651 µM
COc1ccc(Cl)cc1NC(=O)Cn1c(=O)oc2cc(S(=O)(=O)N3CCCCCC3)ccc21	inactive
CC(=O)c1c(C)n(Cc2ccccc2Cl)c2ccc(O)cc12	inactive
Cc1csc2ncc(C(=O)NCCC(c3ccccc3)c3ccccc3)c(=O)n12	inactive
Cc1cccc(NC(=O)CSc2cn[nH]n2)c1	inactive
CCCc1nc(NCc2ccncc2)c2nnn(Cc3ccccc3F)c2n1	inconclusive: 0.794 µM [activator, partial curve, poor fit]
O=C(/C=C/c1ccccc1Cl)Nc1cccc(S(=O)(=O)NC2=NCCCCC2)c1	inactive
CCC(=O)Oc1cc(C(C)(C)C)cc2cc(-c3nc(-c4ccc(OC)cc4OC)no3)c(=O)oc12	inactive
O=C(NC(Nc1ncc(S(=O)(=O)c2ccc([N+](=O)[O-])cc2)s1)(C(F)(F)F)C(F)(F)F)c1ccc(Cl)cc1	inconclusive: 3.16 µM [inhibitor, full curve, poor fit]
Cc1ccc(NC(=O)CSC2=C(C#N)C(c3ccco3)C3=C(CCCC3=O)N2)cc1 (stereo not drawn)	inconclusive: 20.6 µM [inhibitor, partial curve, poor fit]

Structures above with an aryl thioether with sulfur outside any ring (three):
Compound	Potency
CN(C)CCNC(=O)c1ccc(Cn2c(SCc3ccc(F)cc3)nc3cccnc32)cc1	inconclusive: 12.6 µM [activator, partial curve]
Cc1ccc2nc(NC(=O)COC(=O)CSc3nc(C)cc(C)n3)sc2c1	inconclusive: 11.6 µM [activator, partial curve]
Cc1cccc(NC(=O)CSc2cn[nH]n2)c1	inactive

Remaining list, next part

Compound	Potency
COc1ccc(-c2noc(CCCC(=O)Nc3cccc(Cl)c3C)n2)cc1	inconclusive: 35.5 µM [inhibitor, single point]
Fc1cccc(/C=N/Nc2ccc3ccccc3n2)c1	inconclusive: 3.16 µM [inhibitor, full curve, poor fit]
CC(=O)N[C@@H](Cc1c[nH]c2ccccc12)C(=O)NCCc1ccc(S(N)(=O)=O)cc1	inconclusive: 31.6 µM [activator, partial curve, poor fit]
CC(=O)Nc1ccc(N=Nc2ccc(O)cc2)cc1	inconclusive: 17.8 µM [inhibitor, partial curve, poor fit]
COCCCNC(=O)c1ccc(CS(=O)(=O)c2cccc(C(F)(F)F)c2)o1	inconclusive: 35.5 µM [activator, single point]
C=CCn1c(C)csc1=Nc1ccccc1C	inconclusive: 1.26 µM [activator, single point]
CC(NC(=O)/C=C/c1ccc(Br)cc1)c1ccccc1 (stereo not drawn)	active: 14.6 µM
Cc1ccc(CNC(=O)C(Cc2ccccc2)NS(=O)(=O)c2cccs2)cc1 (stereo not drawn)	inconclusive: 16.4 µM [inhibitor, partial curve, poor fit]
CSc1nn(CC(=O)Nc2ccccc2F)c(N)c1S(=O)(=O)c1ccccc1	inconclusive: 35.5 µM [inhibitor, single point]
Cc1cc(N2CCN(C)CC2)ccc1NC(=O)c1ccc(-c2ccc(Cl)cc2)o1	inconclusive: 6.31 µM [inhibitor, full curve, poor fit]
Cc1cccc(C(=O)Nc2ccc(Cl)cc2C(=O)c2ccccc2)c1	inactive
COc1ccc(CNC(=O)Cc2c(C)c3cc4c(C)coc4cc3oc2=O)cc1	inactive
COc1ccc2ccccc2c1/C=N/NC(=S)NCCN1CCOCC1	inconclusive: 8.91 µM [inhibitor, partial curve]
CCOc1cc(N2CCOCC2)c(OCC)cc1NC(C)C(=O)N1CCN(CC)CC1 (stereo not drawn)	inactive
O=C(NC(=S)Nc1ccc(N2CCOCC2)cc1)c1ccco1	inactive
COc1ccccc1N1CCN(C(c2cc3cc(C)ccc3[nH]c2=O)c2nnnn2C2CCCC2)CC1 (stereo not drawn)	inconclusive: 29.1 µM [inhibitor, single point]
O=S(=O)(Nc1nc2ccccc2[nH]1)c1ccc(Cl)cc1	inactive
O=C(Nc1ccc(Cc2ccncc2)cc1)C1CCC(N2C(=O)C3CC=CCC3C2=O)CC1 (stereo not drawn)	inactive
O=C(CCl)N(c1ccc(Cl)cc1)c1c[nH]c2ccccc12	inconclusive: 10 µM [inhibitor, partial curve]
COc1ccc(S(=O)(=O)N2CCCCCC2)cc1C(=O)N(C)Cc1ccccc1F	inconclusive: 25.1 µM [inhibitor, single point]
O=C(Nc1cccc(S(=O)(=O)NCc2ccco2)c1)c1cc(-c2ccc(F)cc2)nc2ccccc12	inconclusive: 20 µM [inhibitor, partial curve, poor fit]
CCOC(=O)c1c(C)[nH]c(CCC(=O)NCc2ccc(OC)c(OC)c2)c1C	inactive
CC1CC(C)CN(CC(=O)Nc2ccc3c(c2)OCCO3)C1 (stereo not drawn)	inconclusive: 10.3 µM [activator, partial curve, poor fit]

Compound	Potency
CCn1c2ccccc2c2nnc(N3CCN(c4cccc(Cl)c4)CC3)nc21	inconclusive: 22.4 µM [inhibitor, single point]
Cc1ccc2cc(CN(C(=O)c3ccco3)c3cccc(C)c3C)c(=O)[nH]c2c1	inconclusive: 15.8 µM [inhibitor, single point]
CN(Cc1ccc(F)cc1)C(=O)c1cccc(S(=O)(=O)N2CCN(c3ccccc3)CC2)c1	inconclusive: 35.5 µM [inhibitor, single point]
FC(F)(F)c1cc(N2CCOCC2)nc(-c2ccccc2)n1	inconclusive: 4.47 µM [activator, single point]
Cc1ccc(Sc2ncnc3onc(C)c23)cc1	inactive
COc1ccc(CNC(=O)Cn2c(=O)nc(-c3ccccc3)c3cc(Cl)ccc32)cc1OC	inconclusive: 11.2 µM [inhibitor, partial curve, poor fit]
Cc1cccc(N2CCN(C(=O)Cn3nc(C)c4sc5ccccc5c4c3=O)CC2)c1C	inconclusive: 35.5 µM [inhibitor, single point]
Cc1ccsc1/C=N/NC(=O)C(=O)NCC(C)C	inactive
CN(CC(O)COC(c1ccccc1)c1ccccc1)C1CCCCC1 (stereo not drawn)	inconclusive: 11.2 µM [inhibitor, partial curve, poor fit]
CC(C)(C)SCCNC(=O)c1ccccc1	inconclusive: 35.5 µM [inhibitor, single point]
Cc1cc(C)nc(N(C#N)CCOc2ccc(Cl)cc2)n1	inconclusive: 25.1 µM [inhibitor, single point]
COc1ccc(N(Cc2ccccc2)C(=O)c2nc(S(C)(=O)=O)ncc2Cl)cc1	inconclusive: 10 µM [inhibitor, partial curve, poor fit]
CCOC(=O)/C=C/C(=O)OCC(=O)Nc1ccc(OC)c(Cl)c1	inconclusive: 13 µM [inhibitor, partial curve, poor fit]
CCCCCCc1nc2ccccc2c(=O)n1N	inconclusive: 12.6 µM [inhibitor, single point]
O=C(Nc1ccc(Oc2ccccc2)nc1)C1CCCCN1Cc1cccc(O)c1 (stereo not drawn)	inconclusive: 35.5 µM [inhibitor, single point]
O=[N+]([O-])c1cc(Cl)ccc1N1CCN(c2cccc(C(F)(F)F)c2)CC1	inconclusive: 20 µM [inhibitor, single point]
COc1cccc(/C=C/c2onc(C)c2S(=O)(=O)N2CCC(C(=O)N3CCCCC3)CC2)c1	inconclusive: 7.08 µM [inhibitor, partial curve, poor fit]
CCc1c(C(=O)Nc2ccc(OC)cc2)[nH]c(C)c1C(C)=O	inactive
O=C(CN1C(=O)c2ccc([N+](=O)[O-])cc2C1=O)NCc1ccco1	inconclusive: 1.26 µM [inhibitor, single point]
COc1cc(C(=O)N/N=C/c2cn(Cc3ccccc3)c3ccccc23)ccc1O	inconclusive: 35.5 µM [inhibitor, single point]
COc1cc2c(cc1OC)CN(Cc1cc(OC)c3c(c1)OCO3)CC2	inactive
CC(C)(C)c1csc(NC(=O)Cc2cccs2)n1	inconclusive: 0.316 µM [inhibitor, full curve, poor fit]

In the list so far, these have bromine.
Compound	Potency
O=C(N/N=C/c1cccc(Br)c1)c1ccc(N2CCCC2=O)cc1	inconclusive: 8.91 µM [inhibitor, partial curve, poor fit]
CC(NC(=O)/C=C/c1ccc(Br)cc1)c1ccccc1 (stereo not drawn)	active: 14.6 µM
